Target: T1, Cytochrome P450 2J2 (Homo sapiens, UniProt P51589)
T1 sequence (P51589 whole entry): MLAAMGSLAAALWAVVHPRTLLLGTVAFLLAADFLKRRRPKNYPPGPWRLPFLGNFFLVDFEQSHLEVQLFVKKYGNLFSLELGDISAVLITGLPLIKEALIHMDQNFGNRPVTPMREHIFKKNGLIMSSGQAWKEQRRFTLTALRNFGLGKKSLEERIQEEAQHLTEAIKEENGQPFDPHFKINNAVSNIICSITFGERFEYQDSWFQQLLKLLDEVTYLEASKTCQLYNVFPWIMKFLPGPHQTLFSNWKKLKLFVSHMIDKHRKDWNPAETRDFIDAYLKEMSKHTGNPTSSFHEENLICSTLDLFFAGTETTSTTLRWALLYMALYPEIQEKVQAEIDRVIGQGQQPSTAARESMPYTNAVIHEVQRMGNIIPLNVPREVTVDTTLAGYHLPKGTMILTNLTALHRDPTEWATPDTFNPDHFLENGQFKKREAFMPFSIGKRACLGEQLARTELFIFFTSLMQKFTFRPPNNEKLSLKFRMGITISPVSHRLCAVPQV

IC50 [µM]	SMILES
> 50	CC(C)(C(=O)O)c1ccc(C(O)CCCN2CCC(C(O)(c3ccccc3)c3ccccc3)CC2)cc1 (configuration not stated) [FEXOFENADINE]
> 50	NS(=O)(=O)c1cc(C(=O)O)c(NCc2ccco2)cc1Cl [FUROSEMIDE]

From ChEMBL document CHEMBL3526101, “Discovery and characterization of novel, potent, and selective cytochrome P450 2J2 inhibitors” (Drug Metab Dispos, 2013)
